Experimental data published in patent US8173397B2, “Folded recombinant catalytic fragments of multidomain serine proteases, preparation and uses thereof” (TargetEx Kft., priority 2002, dated 2012).
At least one read-out could not be matched to a standard name with certainty.

B1: MASP-2 SP: E. coli-expressed, refolded human MASP-2 serine protease domain, Ala-Ser-Met-Thr tag followed by Pro432, ending Phe686 (protein)
chain 1: ASMTPVCGLSARTTGGR
chain 2: IYGGQKAKPGDFPWQVLILGGTTAAGALLYDNWVLTAAHAVYEQKHDASALDIRMGTLKRLSPHYTQAWSEAVFIHEGYTHDAGFDNDIALIKLNNKVVINSNITPICLPRKEAESFMRTDDIGTASGWGLTQRGFLARNLMYVDIPIVDHQKCTAAYEKPPYPRGSVTANMLCAGLESGGKDSCRGDSGGALVFLDSETERWFVGGIVSWGSMNCGEAGQYGVYTKVINYIPWIENIISDF
B2: MASP-2 CCP-SP: E. coli-expressed, refolded human MASP-2 CCP2-SP fragment, Ala-Ser-Met-Thr tag followed by Ile363, ending Phe686 (protein)
chain 1: ASMTIVDCGPPDDLPSGRVEYITGPGVTTYKAVIQYSCEETFYTMKVNDGKYVCEADGFWTSSKGEKSLPVCEPVCGLSARTTGGR
chain 2: B1 chain 2

How the values were obtained:
C2 = target: T1, C2 (Homo sapiens, UniProt P06681); assay: C2 cleavage by MASP fragments; format: biochemical; conditions: 37° C., pH 7.4; averages of 2 to 4 experiments, standard errors
T1 construct: from tissue
T1 sequence (P06681 21-752): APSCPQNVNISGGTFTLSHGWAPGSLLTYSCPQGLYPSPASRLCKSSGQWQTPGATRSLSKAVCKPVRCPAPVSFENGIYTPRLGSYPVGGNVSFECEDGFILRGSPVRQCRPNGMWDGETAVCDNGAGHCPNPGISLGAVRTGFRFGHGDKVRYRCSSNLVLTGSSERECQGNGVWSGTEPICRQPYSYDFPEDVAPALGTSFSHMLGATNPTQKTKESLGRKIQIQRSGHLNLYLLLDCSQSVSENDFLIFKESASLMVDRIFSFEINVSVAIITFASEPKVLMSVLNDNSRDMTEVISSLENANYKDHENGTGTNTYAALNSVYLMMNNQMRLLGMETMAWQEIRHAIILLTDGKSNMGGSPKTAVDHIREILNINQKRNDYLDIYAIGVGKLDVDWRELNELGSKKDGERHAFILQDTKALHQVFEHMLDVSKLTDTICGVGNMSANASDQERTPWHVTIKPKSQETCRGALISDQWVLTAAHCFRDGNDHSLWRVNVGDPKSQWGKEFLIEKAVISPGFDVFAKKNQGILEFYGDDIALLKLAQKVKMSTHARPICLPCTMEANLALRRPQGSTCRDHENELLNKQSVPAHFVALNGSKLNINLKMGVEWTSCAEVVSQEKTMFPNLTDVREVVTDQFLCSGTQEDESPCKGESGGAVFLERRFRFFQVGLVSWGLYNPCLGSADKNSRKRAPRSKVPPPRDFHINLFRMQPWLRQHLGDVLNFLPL
Protocol: (§1) C2, C3, C3(NH3), C4 cleavage—Serial dilutions of MASP-1 and MASP-2 fragments ranging between concentrations of 1 μM and 10 pM were incubated at 37° C. in 20 mM HEPES, 140 mM NaCl, pH 7.4 with C2, C3, C3(NH3) or C4 at typical concentrations of 0.5-1 μM. The cleavage was followed by SDS-PAGE under reducing conditions. Desirable concentrations of the MASP fragments for further detailed kinetic analysis were chosen to be where half of the protein substrates were hydrolyzed during the first 20 minutes of incubation. The protein substrates C2, C3, C3(NH3) or C4 were then incubated with the selected concentrations of the MASP fragments at 37° C. in 20 mM HEPES, 140 mM NaCl, pH 7.4. Typically 11-13 samples were taken at varying time periods but always within 50 minutes from the beginning of the reaction. Cleavages rates were quantified by measuring the diminution of the cleaved chain visualized by Coomassie stained SDS-PAGs using a GEL DOC 1000 instrument and Molecular Analyst Software for densitometric calculations (Bio-Rad, Hercules, Calif., USA). The reactions were assumed to be of the Michaelis-Menten type. In the case of C3 and C3(NH3) cleavage a further reasonable assumption of KM>>[substrate] was made. […]

C4 = C4 cleavage by MASP fragments; format: biochemical, human; conditions: 37° C., pH 7.4; averages of 2 to 4 experiments, standard errors
Protocol: as §1

Row | Molecule | C2 kcat/KM (C2) | C4 kcat/KM (C4)
1 | B1 | 2 500 000 ± 1 300 000 M^−1 s^−1 | 130 000 ± 30 000 M^−1 s^−1
2 | B2 | 1 300 000 ± 200 000 M^−1 s^−1 | 5 700 000 ± 550 000 M^−1 s^−1
